The text below walks through data of patent US20080014191A1.

Chains of the proteins cited; added tags and fusions are not shown. Lines headed by an entry give the natural chain unless they say otherwise; changes in a name come on top.
UniProt P13569: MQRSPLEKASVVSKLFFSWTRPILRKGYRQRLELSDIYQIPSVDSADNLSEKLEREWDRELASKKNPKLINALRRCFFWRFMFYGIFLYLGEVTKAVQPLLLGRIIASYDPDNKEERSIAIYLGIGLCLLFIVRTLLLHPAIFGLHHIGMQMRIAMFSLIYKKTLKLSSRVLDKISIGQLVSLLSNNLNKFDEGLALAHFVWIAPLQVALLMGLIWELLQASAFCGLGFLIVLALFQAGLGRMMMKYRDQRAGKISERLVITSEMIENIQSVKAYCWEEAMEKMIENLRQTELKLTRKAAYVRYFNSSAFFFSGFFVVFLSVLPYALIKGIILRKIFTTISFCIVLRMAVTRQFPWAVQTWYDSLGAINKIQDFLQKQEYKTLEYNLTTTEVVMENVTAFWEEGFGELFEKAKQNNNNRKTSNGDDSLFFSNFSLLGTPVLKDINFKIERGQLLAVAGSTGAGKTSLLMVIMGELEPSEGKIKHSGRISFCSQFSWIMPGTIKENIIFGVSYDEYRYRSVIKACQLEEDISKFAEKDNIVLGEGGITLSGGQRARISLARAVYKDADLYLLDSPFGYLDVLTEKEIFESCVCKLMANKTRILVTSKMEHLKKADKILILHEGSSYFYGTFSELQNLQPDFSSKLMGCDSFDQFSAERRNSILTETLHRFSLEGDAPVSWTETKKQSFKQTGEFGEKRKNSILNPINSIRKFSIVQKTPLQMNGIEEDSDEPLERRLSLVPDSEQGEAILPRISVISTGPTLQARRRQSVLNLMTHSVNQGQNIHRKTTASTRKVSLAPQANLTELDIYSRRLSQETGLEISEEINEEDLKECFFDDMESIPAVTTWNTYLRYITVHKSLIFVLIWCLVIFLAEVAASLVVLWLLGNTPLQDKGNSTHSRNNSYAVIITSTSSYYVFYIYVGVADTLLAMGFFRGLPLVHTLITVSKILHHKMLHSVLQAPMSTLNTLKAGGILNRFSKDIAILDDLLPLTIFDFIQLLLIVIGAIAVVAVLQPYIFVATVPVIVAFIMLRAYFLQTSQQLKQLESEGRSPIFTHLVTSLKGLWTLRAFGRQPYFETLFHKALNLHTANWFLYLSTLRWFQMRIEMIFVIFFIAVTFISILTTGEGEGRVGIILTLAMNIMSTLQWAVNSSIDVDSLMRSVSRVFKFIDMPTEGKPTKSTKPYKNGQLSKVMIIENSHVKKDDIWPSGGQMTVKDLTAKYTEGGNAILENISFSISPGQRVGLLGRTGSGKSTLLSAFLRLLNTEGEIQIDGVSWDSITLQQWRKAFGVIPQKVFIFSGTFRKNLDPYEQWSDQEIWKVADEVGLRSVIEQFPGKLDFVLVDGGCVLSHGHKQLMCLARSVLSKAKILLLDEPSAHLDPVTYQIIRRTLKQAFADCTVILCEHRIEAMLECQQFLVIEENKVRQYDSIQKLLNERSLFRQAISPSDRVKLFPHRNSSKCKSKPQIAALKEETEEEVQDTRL

The target of this assay is ΔF508 CFTR (Homo sapiens (Human)) (UniProt P13569). In words: CFTR co-IP, MudPIT MS; BHK cells.

Results are given in words; binding and its absence hold for the method and conditions named. Binding seen in cells or lysates may run through a third protein. Some results given as binding are weak or reduced against the parent protein; the word gives no strength.

B1: Calnexin (protein, UniProt P27824 21-592, looked up)
chain: HDGHDDDVIDIEDDLDDVIEEVEDSKPDTTAPPSSPKVTYKAPVPTGEVYFADSFDRGTLSGWILSKAKKDDTDDEIAKYDGKWEVEEMKESKLPGDKGLVLMSRAKHHAISAKLNKPFLFDTKPLIVQYEVNFQNGIECGGAYVKLLSKTPELNLDQFHDKTPYTIMFGPDKCGEDYKLHFIFRHKNPKTGIYEEKHAKRPDADLKTYFTDKKTHLYTLILNPDNSFEILVDQSVVNSGNLLNDMTPPVNPSREIEDPEDRKPEDWDERPKIPDPEAVKPDDWDEDAPAKIPDEEATKPEGWLDDEPEYVPDPDAEKPEDWDEDMDGEWEAPQIANPRCESAPGCGVWQRPVIDNPNYKGKWKPPMIDNPSYQGIWKPRKIPNPDFFEDLEPFRMTPFSAIGLELWSMTSDIFFDNFIICADRRIVDDWANDGWGLKKAADGAAEPGVVGQMIEAAEERPWLWVVYILTVALPVFLVILFCCSGKKQTSGMEYKKTDAPQPDVKEEEEEKEEEKDKGDEEEEGEEKLEEKQKSDAEEDGGTVSQEEEDRKPKAEEDEILNRSPRNRKPRRE
Consider B1, for which the binding entry was “binds”.
